# According to PMC7819943, “Rice protein-binding microarrays: a tool to detect cis-acting elements near promoter regions in rice”:
# The other results are listed elsewhere or left out.
# Biological target: T1, OsSMF1 (Oryza sativa, UniProt Q6ZLB0 1-436)
# T1 sequence: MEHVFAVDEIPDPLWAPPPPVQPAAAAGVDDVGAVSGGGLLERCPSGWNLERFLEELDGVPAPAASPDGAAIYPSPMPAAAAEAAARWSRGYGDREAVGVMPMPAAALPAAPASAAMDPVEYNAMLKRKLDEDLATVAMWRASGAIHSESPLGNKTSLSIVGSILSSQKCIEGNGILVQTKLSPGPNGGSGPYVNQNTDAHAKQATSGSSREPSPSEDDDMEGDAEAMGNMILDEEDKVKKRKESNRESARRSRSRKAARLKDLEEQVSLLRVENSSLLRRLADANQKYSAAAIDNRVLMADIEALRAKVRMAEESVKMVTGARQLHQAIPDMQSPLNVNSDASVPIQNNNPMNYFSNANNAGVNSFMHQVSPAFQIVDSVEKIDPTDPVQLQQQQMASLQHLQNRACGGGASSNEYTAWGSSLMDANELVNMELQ
# Experiment: protein-binding microarray (RPBM); PBS, 2% BSA, 51.3 ng/ul salmon testes DNA, 50 uM zinc acetate, 200 nM TF, 25 C, 1 h; high values mean tight binding
# Settings: protein: recombinant; tags: N-terminal polyhistidine and DsRed monomer fusion (pET32a); chain copies: 2; label: CyDye5-dUTP incorporated in the synthesized complementary strand; 3' TTTTT single-stranded linker to array surface; dsDNA, one strand shown
# In short: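 Using Ni–NTA, transcription factors fused N-terminally to polyhistidine and DsRed were purified after expression in E. coli BL21-CodonPlus. These were incubated at 200 nM with a blocked, double-stranded custom Agilent array for 1 h at 25 °C in a buffer containing 50 µM zinc acetate, and the array was washed. The binding signal is per-feature fluorescence intensity (arbitrary units) on an Axon 4000B scanner.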
row,Sequence,binding signal
1,CGAGGCTCGGTGAGGTTGACAGCACTGCACTTCACAGTTCCGGAGTCACCTAGTGCAG,3580 fluorescence intensity (a.u.)
2,TCACGCTCATACAGTCATAGTACTACGTACTCCATACTGCCGGAGTCACCTAGTGCAG,4350 fluorescence intensity (a.u.)
3,CCTTTCCGGTCATATCAGCGTCCTTCGCCCGACCAATCACCGGAGTCACCTAGTGCAG,3340 fluorescence intensity (a.u.)
4,TCCGATTGCATTTTCACAAGCGAAAATAAGGTGACGTCATCGGAGTCACCTAGTGCAG,20700 fluorescence intensity (a.u.)
5,CAAGGCGGTTGGCACTGAGACCCTGCCACGTAGACGAGGGCGGAGTCACCTAGTGCAG,14500 fluorescence intensity (a.u.)
6,TCCACTGCCTAGACACGCCACGACTTGGACCATCAGCTAGCGGAGTCACCTAGTGCAG,4280 fluorescence intensity (a.u.)
7,CAGGGGCTCCAATACTGACGCGTCGCCGGCGTACGTCCTCCGGAGTCACCTAGTGCAG,4300 fluorescence intensity (a.u.)
8,CTATGGCAGTACGGAGGGCGGTATCGGCCTACGTGGCACACGGAGTCACCTAGTGCAG,19000 fluorescence intensity (a.u.)
9,TGGCCCATTACAAAGCAACGTCACCGTTCCGGGCAGAAAACGGAGTCACCTAGTGCAG,4950 fluorescence intensity (a.u.)
10,TGCCGCGCGGAGCTTTTAAAACGCCGCAACTTCCTTCCTTCGGAGTCACCTAGTGCAG,20800 fluorescence intensity (a.u.)
11,AAATTAAAATTGATCGAAATTGGGAACAAATTAAGCCAGACGGAGTCACCTAGTGCAG,33800 fluorescence intensity (a.u.)
12,TGATCAGCTCGCCACGTCACCGTCACCGCCTCGCCTCGCTCGGAGTCACCTAGTGCAG,35300 fluorescence intensity (a.u.)
13,CATCTCCTGTCGCGTCGTCCTTCGCCACGACGATCCCCTCCGGAGTCACCTAGTGCAG,4180 fluorescence intensity (a.u.)
14,TCCAGATCAAACTGCCACGTGAGCACCACATCAATGTCACCGGAGTCACCTAGTGCAG,23200 fluorescence intensity (a.u.)
15,CGCCGTCCCGGAGTGGGACAGGCGGCGGGCGGGATCCGACCGGAGTCACCTAGTGCAG,28700 fluorescence intensity (a.u.)
16,AAATACTGTAGTAAGTATACGTGTTATGCTCACTTTTGTACGGAGTCACCTAGTGCAG,4020 fluorescence intensity (a.u.)
17,CACTCTTTATTTTATTATGACTTGATTCGTCATCAAATGTCGGAGTCACCTAGTGCAG,3870 fluorescence intensity (a.u.)
18,TTACACCTTGTCACCGAACGCGATTTGTTTGTTTCGCCCCCGGAGTCACCTAGTGCAG,4710 fluorescence intensity (a.u.)
19,GACCATTTGTCACACTGGAAAGTCCGCGTTTCATTTCCTGCGGAGTCACCTAGTGCAG,25800 fluorescence intensity (a.u.)
20,ACATCAAGAGACACATCAGCCCACTGCTAGACTGCTAATTCGGAGTCACCTAGTGCAG,3400 fluorescence intensity (a.u.)
21,ATCCCAAGCTGGCCCTCCACGTCGGCCACGTGTGGAGGTGCGGAGTCACCTAGTGCAG,15300 fluorescence intensity (a.u.)

# Some values from the list:
# binding signal with CATCTCCTGTCGCGTCGTCCTTCGCCACGACGATCCCCTCCGGAGTCACCTAGTGCAG is entered as 4180 fluorescence intensity (a.u.)
# binding signal with TGGCCCATTACAAAGCAACGTCACCGTTCCGGGCAGAAAACGGAGTCACCTAGTGCAG is entered as 4950 fluorescence intensity (a.u.)

# The results go on.

row,Sequence,binding signal
1,TCTCCTCGCTTCCCATTCCTGGGCTCTGACTCGGACGCCCCGGAGTCACCTAGTGCAG,3960 fluorescence intensity (a.u.)
2,ATATACGATTCGTAATTTGATATGACTAATTAACTACACCCGGAGTCACCTAGTGCAG,3260 fluorescence intensity (a.u.)
3,CAACGTCCGGATACGTTTCTCATACGTCAGCCAAGCGCATCGGAGTCACCTAGTGCAG,9610 fluorescence intensity (a.u.)
4,TATGCTCGGTGTGTTTATCATTGGTGTGATTGTGTATAGTCGGAGTCACCTAGTGCAG,26800 fluorescence intensity (a.u.)
5,AGCATTGCAACGACGACGTCATCGAGTCATCGCTCGAGCTCGGAGTCACCTAGTGCAG,7670 fluorescence intensity (a.u.)
6,CCTCCGCGCGGCCACGCCTACTCACAAAACCCATCCACGTCGGAGTCACCTAGTGCAG,4670 fluorescence intensity (a.u.)
7,TGAGCTTGTGATGGTGTCATGGTTATATTTTCGTGTTGCCCGGAGTCACCTAGTGCAG,3980 fluorescence intensity (a.u.)
8,CATGTAGAGTTGTAGACGTTACGCACAGTGACGCCATCTTCGGAGTCACCTAGTGCAG,3620 fluorescence intensity (a.u.)
9,ACATTGCAATAGTGCAACCGTGGCATCGTTCTTTAGGTGGCGGAGTCACCTAGTGCAG,5790 fluorescence intensity (a.u.)
10,TAATTGGGGTGATGTGGCTAATTCTCAAAGCAGTTTTATACGGAGTCACCTAGTGCAG,5820 fluorescence intensity (a.u.)
11,GCAACAGCTATAATTCGTTGCTGACTATAGCCCACATGCCCGGAGTCACCTAGTGCAG,4450 fluorescence intensity (a.u.)
12,GCTGCTCTGCTTCTGCTTGCCTGTGCTGTGCTGTGTGTGTCGGAGTCACCTAGTGCAG,3340 fluorescence intensity (a.u.)
13,GGAAAAGAGAGTAGGGTGCTGACGTGGACACCCTGACGTGCGGAGTCACCTAGTGCAG,23500 fluorescence intensity (a.u.)
14,GTCAAATCATGGCGTAATTGGGCTTAAAAGATTCGTCTCGCGGAGTCACCTAGTGCAG,35400 fluorescence intensity (a.u.)
15,AGTGGCATCAAGTCAGCTACTGTTCTTGTCTGTGATTGATCGGAGTCACCTAGTGCAG,3690 fluorescence intensity (a.u.)
16,GGTATTAACGTATGATTAATTGAGTTTCAATTATTACAAACGGAGTCACCTAGTGCAG,25200 fluorescence intensity (a.u.)
17,TTCAGCGTCATACAAGGTCAGACATGTCAATGTCATCCTCCGGAGTCACCTAGTGCAG,3820 fluorescence intensity (a.u.)
18,GATTTGAACTCAGGGAACAACTCATCGTGCAACAACTTTGCGGAGTCACCTAGTGCAG,16400 fluorescence intensity (a.u.)
19,GGCATTCTCTGTACTTTGGCTGTCACGCACGCACGCGTGGCGGAGTCACCTAGTGCAG,3250 fluorescence intensity (a.u.)
20,CCTTGCTGAGCTGGTCGGTGTCGTGTACCAAGAAACCCTCCGGAGTCACCTAGTGCAG,8150 fluorescence intensity (a.u.)
21,CGACGACGGATGCGACGATGGGTGACGGCGGAGTGGCGGCCGGAGTCACCTAGTGCAG,3390 fluorescence intensity (a.u.)
